# Laboratory results reported in PubChem BioAssay AID720511 (Broad Institute, 2013).
# Where “and” joins values, the source holds several entries; their conditions need not be identical. Equal entries are not always repeated. Screen size: about 350,000 compounds; about 1,300 (0.37%) were called active. This list was built around the results that the source calls inconclusive (neither active nor inactive); the mix of calls is not that of the screen.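 Rule for the calls: active = mean added fluorescence quench of at least 8% versus neutral control, with both replicates also reaching 8%; inconclusive = only one of the mean or replicate conditions met; inactive = mean below 8% and not both replicates reaching 8%.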
# Test: F508del CFTR correction, initial screen, CFBE line, single point (AID 720511);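 note: cells transiently co-express mutant CFTR-F508del with the halide-sensitive YFP; corrector assay measuring rescue of mutant channel to the surface after 24 h compound exposure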
# Settings: CFBE cells, YFP halide quenching, at 7.58 µM, active compounds read high, % fluorescence drop versus neutral controls, stimulated with forskolin plus potentiator P3
row,SMILES,activity (quench increase)
1,CCN(CC)Cc1cc(Nc2c3ccccc3nc3c4ccccc4n(C)c23)cc(CN(CC)CC)c1O,inconclusive: 8.07%
2,CC(=O)/C(C#N)=C1\NC(=O)C(Cc2ccc(C)c(Cl)c2)S1 (stereo unspecified),inconclusive: 8.35%
3,O=c1cc(-c2ccc(O)c(O)c2)oc2cc(O)cc(O)c12,active: 8.04%
4,CCOC(=O)C1(Cc2ccccc2)CCN(Cc2csc(C(C)=O)c2)CC1,inactive: -1.04%
5,Cc1ccc(NC(=O)c2ccccc2F)c(NC(=O)c2ccccc2F)c1,inactive: 0.0025%
6,CCCCCCC(=O)N(O)C1CC(=O)N(c2ccc(Cl)cc2)C1=O (stereo unspecified),inconclusive: 8.91%
7,Cc1ccc(S(=O)(=O)Nc2ccc3c(c2)CC(=O)N([C@H](C)CO)C[C@H](C)[C@H](CN(C)Cc2ccc(C(F)(F)F)cc2)O3)cc1,inconclusive: 9.2%
8,C=CCOc1c(Cl)cc(C(=S)N2CCCC2)cc1OCC,inconclusive: 8.28%
9,CS(=O)(=O)N1CC(=O)N2[C@H](CO)[C@H](c3ccc(C#Cc4ccc(F)cc4)cc3)[C@@H]2C1,inconclusive: 8.33%
10,N#C[C@H]1N[C@H](CO)[C@@H]1c1ccc(/C=C/c2ccccc2)cc1,inactive: -2.51% and inactive: 0.766%
11,COc1ccccc1C1CC(=O)Nc2cc3c(cc21)OCCO3 (stereo unspecified),active: 10.6%
12,Cc1cccc(NC(=S)NC(=O)/C=C/c2ccco2)c1,inconclusive: 10.3%
13,NS(=O)(=O)c1ccc(NC(=S)NCc2ccc(F)cc2)cc1,inconclusive: 8.01%
14,CCCc1ccc(-c2cc(NC(=O)Cc3c[nH]c4ccccc34)ccc2Nc2cccnc2)cc1,inactive: 1.9%
15,CCOC(=O)C1=C(C)NC(SC)=C(C#N)C1CC(C)C (stereo unspecified),inconclusive: 8.88%
16,COc1ccc(N2CCc3c(C)nc4c(OC)cccc4c32)cc1,inconclusive: 9.59%
17,COc1ccc(C(=O)c2ccc(OC)cc2OC)cc1,inconclusive: 8.33%
18,COc1cccc(-c2ccc3c(c2)O[C@H](CN(C)Cc2cccnc2)[C@H](C)CN([C@H](C)CO)S3(=O)=O)c1,inconclusive: 6.9%
19,CCCN(C)C[C@@H]1Oc2cc(C#Cc3cccc(OC)c3)ccc2S(=O)(=O)N([C@H](C)CO)C[C@@H]1C,inactive: 0.335%
20,COCCCNC(=S)NNC(=O)c1ccc(S(=O)(=O)N2CCC(C)CC2)cc1,inconclusive: 10.5%
21,O=C(Nc1nc2ccc(SC(F)F)cc2s1)c1ccc(NS(=O)(=O)c2ccc(F)c(F)c2)cc1,inconclusive: 9.13%

row,SMILES,activity (quench increase)
1,COc1cccc(NC(=O)COC(=O)Cc2ccc(Cl)cc2)c1,inconclusive: 8.15%
2,Cc1cccc(N2CCN(S(=O)(=O)c3cc(-c4cc(C)no4)ccc3C)CC2C)c1 (stereo unspecified),active: 11.3%
3,COc1cc(/C=N/NC(=O)CNC(=O)c2ccncc2)ccc1O,inactive: 1.2%
4,COc1ccccc1CNS(=O)(=O)c1ccc(-c2cnc(C3CC3)o2)cc1,inconclusive: 9.7%
5,NS(=O)(=O)c1ccc(-n2ncc3c(=O)[nH]c(SCC(=O)Nc4nccs4)nc32)cc1,active: 8.09%
6,COc1cccc(S(=O)(=O)N2CC[C@@H]3[C@H](CO)N(C)c4ccc(C5=CCCCC5)cc4[C@@H]32)c1,inconclusive: 8.64%
7,Cc1cc(-c2ccccc2)nc(N(C)NC(=O)C2CC2)c1S(C)(=O)=O,active: 8.55%
8,Cc1cc(C(=O)N2CCC2(C)C(=O)NCCC#N)nn1C (stereo unspecified),inactive: -0.582%
9,C[C@H](CO)N1C[C@H](C)[C@@H](CN(C)C)Oc2cc(-c3ccncc3)ccc2S1(=O)=O,inconclusive: 9.35%
10,COc1cc(C(=O)N/N=C/c2ccccn2)cc(OC)c1OC,inconclusive: 9.15%
11,O=C1C=C(c2ccc3ncccc3c2)C[C@@H](c2ccc3c(c2)OCO3)C1,active: 9.77%
12,Cc1noc(C)c1COc1ccc(CC(=O)NCc2ccccc2)cc1,inconclusive: 9.35%
13,Cc1ccc(-c2c[n+](CC(=O)c3ccc(Br)cc3)c3n2CCCCC3)cc1,inactive: 2.46%
14,O=[N+]([O-])c1c(Nc2ccccn2)cc(Cl)c2nonc12,inconclusive: 8.17%
15,COc1ccc(OC)c(N/C(N)=N/c2nc(C)cc(C)n2)c1,active: 8.91%
16,Clc1ccc(-c2nc3ccc(Br)cn3c2Cc2cccc(Cl)c2)cc1,inactive: -0.59%
17,CO[C@H]1CN(C)C(=O)c2cc(NC(=O)NC(C)C)ccc2OC[C@H](C)N(Cc2cncnc2)C[C@@H]1C,inactive: 1.06%
18,C[C@@H]1CCCCO[C@@H](CN(C)C(=O)Nc2ccc3c(c2)OCO3)[C@H](C)CN([C@H](C)CO)C(=O)c2cc(NC(=O)C3CCCCC3)ccc2O1,inconclusive: 8.03%
19,COc1ccc(C#Cc2ccc3c(c2)O[C@H](CN(C)C(=O)Nc2cccc(OC)c2)[C@H](C)CN([C@H](C)CO)S3(=O)=O)cc1,active: 8.61%
20,CCCNC(=O)N(C)C[C@H]1Oc2ncc(-c3ccc(OC)cc3)cc2C(=O)N([C@H](C)CO)C[C@H]1C,inactive: 1.13%
21,C[C@H]1CN([C@@H](C)CO)C(=O)c2cccc(NS(=O)(=O)c3ccc(F)cc3)c2O[C@H]1CN(C)Cc1ccc(Oc2ccccc2)cc1,inconclusive: 8.41%

row,SMILES,activity (quench increase)
1,Cc1ccc(NC(=O)Nc2ccc(S(N)(=O)=O)cc2)cc1,inconclusive: 8.09%
2,COc1cccc(/C=N/NC(=O)Cn2nc(C)c([N+](=O)[O-])c2C)c1O,inconclusive: 9.33%
3,C/C(=N\Nc1ccc2nncn2n1)c1ccccn1,inconclusive: 8.31%
4,CCOc1ccc(S(=O)(=O)N2CCOCC2)cc1NC(=O)CSCC(=O)Nc1ccc(OC)cc1,active: 19.8%
5,C/C(CC(=O)Nc1ccc(C)c(Cl)c1)=N\NC(=O)c1ccco1,inactive: -2.49%
6,COc1ccc(OC)c(NC(=O)N2CCCC(C)C2)c1 (stereo unspecified),inactive: -0.73%
7,COc1ccc(N/N=C/c2c(C(=O)O)ccc3ccccc23)cc1,inconclusive: 8.34%
8,Cc1cccc(-n2c(C)cc(/C=N/NC(N)=S)c2C)c1,inconclusive: 8.59%
9,Clc1ccc(-c2c[n+](Cc3ccc(Cl)cc3Cl)c3n2CCCCC3)cc1,inconclusive: 8.92%
10,OC(COCCC12CC3CC(CC(C3)C1)C2)CN1CCCC1 (stereo unspecified),inconclusive: 8.68%
11,C/C(=N\Nc1nc(C(C)(C)C)cs1)c1ccccc1,inconclusive: 8.8%
12,Cc1ccc(-n2cc(CN3CCCN(C=O)CC3)c(-c3ccc(F)cc3)n2)cc1,inactive: 5.17%
13,Cc1ccc(OCC(=O)Nc2ccc3c(c2)ncn3C)cc1,active: 22%
14,Cc1ccc(C)c2nc3sc(C(=O)N4CCOCC4)c(N)c3cc12,inconclusive: 8.31%
15,Cc1cc(NC(=S)NC(=O)c2ccccc2)ccc1-c1cc2ccccc2oc1=O,inconclusive: 8.03%
16,O=C(Cc1ccccn1)NCC[C@@H]1CC[C@H](NC(=O)Nc2ccc(C(F)(F)F)cc2)[C@@H](CO)O1,active: 14.2%
17,Cc1ccc(-n2c(-c3ccccc3)cc(/C=N/NC(=O)CC#N)c2-c2ccccc2)cc1,inconclusive: 8.13%
18,C[C@@H]1CN([C@@H](C)CO)C(=O)c2cc(NS(=O)(=O)c3ccccc3)ccc2O[C@@H]1CN(C)Cc1ccncc1,inactive: -0.113%
19,Cc1csc2sc(-c3ccnc(SCC(=O)NCc4ccccc4)n3)c(C)c12,active: 15.9%
20,CCOC(=O)COc1cccc2c(=O)n(CC(=O)NCc3ccc(F)cc3)ccc12,inconclusive: 8.41%
21,CCNc1ccc(C(=O)OCC)cc1NC(=O)c1cccc(N(C)C)c1,inconclusive: 8.01%

# Of the compounds above, these contain an NH in an aromatic ring.
row,SMILES,activity (quench increase)
14,CCCc1ccc(-c2cc(NC(=O)Cc3c[nH]c4ccccc34)ccc2Nc2cccnc2)cc1,inactive: 1.9%
5,NS(=O)(=O)c1ccc(-n2ncc3c(=O)[nH]c(SCC(=O)Nc4nccs4)nc32)cc1,active: 8.09%

# (next part)

row,SMILES,activity (quench increase)
1,CC1CC(C)(C)NC(=S)N1CCC(=O)NCc1ccc(Cl)cc1 (stereo unspecified),inconclusive: 8.82%
2,CCc1cc(C(=O)N/N=C/c2ccc(O)cc2O)c2ccccc2n1,inconclusive: 8.19%
3,Cc1ccc(C(=O)NNC(=O)c2ccc(S(=O)(=O)N3CCCCC3)cc2)cc1,active: 9.76%
4,CC(C)(C)NC(=O)C(c1ccncc1)n1c(=O)c(-c2ccco2)nc2ccccc21 (stereo unspecified),inactive: -1.96%
5,COCCCNC(=S)Nc1cc2oc3ccccc3c2cc1OC,inconclusive: 8.54%
6,N#C/C(=N\Nc1ccc(Cl)cc1)C(N)=S,inconclusive: 8.17%
7,O=C(Nc1ccc(F)cc1)C1CCN(C(=O)c2ccc(F)cc2)CC1,active: 13.7%
8,Cc1ccc(CN=C(N)Nc2nc(C)cc(C)n2)cc1,inconclusive: 10.1%
9,Cc1ccc(NC(=O)c2nc(S(=O)(=O)Cc3ccccc3)ncc2Cl)cc1,inconclusive: 11.6%
10,Cc1ccc(S(=O)(=O)Nc2cccc3c2O[C@H](CN(C)Cc2ccc(Cl)c(Cl)c2)[C@H](C)CN([C@@H](C)CO)C3=O)cc1,inactive: -0.0645%
11,Cc1cc(N2CCN(Cc3cn(C)nc3-c3ccccc3F)CC2)cc(C)n1,inconclusive: 9.25%
12,COc1ccc2[nH]c3c(N4CCc5ccccc5C4)ncnc3c2c1,inconclusive: 8.85%
13,C[C@H](CO)N1C[C@H](C)[C@H](CN(C)Cc2ccccc2C(=O)O)Oc2cc(-c3ccc(C(=O)N(C)C)cc3)ccc2S1(=O)=O,inactive: 1.79%
14,O=c1oc2ccccc2cc1-c1cn(-c2ccccc2)c(=S)[nH]1,inconclusive: 8.79%
15,CCOc1cc(/C=C2/SC(=S)N(Cc3ccccc3)C2=O)ccc1O,inconclusive: 11.4%
16,CCN(CC)c1ccc2cc(-c3nc(-c4cc5ccccc5oc4=O)cs3)c(=O)oc2c1,inconclusive: 12.8%
17,COc1ccc(OCC(=O)NNC(=O)Cn2c(=O)cnc3ccccc32)cc1,inactive: 0.659%
18,CC(=O)N1N=C(c2ccc(NS(=O)(=O)c3ccccc3)cc2)CC1c1ccco1 (stereo unspecified),inactive: 3.02%
